Assay results: the supplement of paper PMC10338343
± gives the standard deviation. The list shows a part of the results, in another mix than the full data. Many of these values have a large error.
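Also: 1 nM active piRISC with 0.1 nM target library at 33 °C single turnover.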

Each sequence was assayed on MIWI (PIWIL1) piRISC loaded with L1MC piRNA (30 nt) (assay: pre-steady-state target cleavage rate (min^-1); MIWI and MILI are mouse PIWI proteins and EfPiwi is from a freshwater sponge; tags in brackets are library labels; higher = faster piRNA-guided slicing of the target). Details: guide: L1MC piRNA 5'p-UAACUAAAUACUAUGCAAGCUGUAGGUCCU; auxiliary factor: 500 nM mouse GTSF1.
Procedure, shortened: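 In HEPES–potassium acetate buffer at 33 °C, […] transcribed, DNA-blocked target RNA library was mixed with 1 nM active affinity-purified piRISC carrying one synthetic guide, with or without 500 nM GTSF1 partner protein, for 0–8 or 0–960 min. Uncleaved targets were sequenced and normalised to depth and to weakly complementary targets; three trials were pooled and k3 was capped at 0.0001 min^-1. The pre-steady-state cleavage rate followed from a burst-and-steady-state fit.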
For UCCUGGAUGUGCUUGGUUAGUAUUUAGUAA, the “pre-steady-state target cleavage rate” value was 0.00438 ± 0.0049. UCCUGGAUGUCGAACGUAUCUAUUUACUUA was tested, and the “pre-steady-state target cleavage rate” value was 0.000201 ± 0.023. AGCACCUACAGCUUGCAUAGUAUUUACUUA was tested, and the “pre-steady-state target cleavage rate” value was 1.4 ± 0.24. With UCGACCUACAGCUUGCAUAGUAUUAUAGUUA the “pre-steady-state target cleavage rate” value was 1.32 ± 0.076.

Same assay, conditions: guide: L1MC piRNA 5'p-UAACUAAAUACUAUGCAAGCUGUAGGUCCU; auxiliary factor: none (no GTSF1)
UCGACCUACAGCUUCCAUAGUAUUUACUUA was tested, and the “pre-steady-state target cleavage rate” value was 0.00109 ± 0.006. AGGACCUACAGCUUGCAUAGUAUUAUGAAA was tested, and the “pre-steady-state target cleavage rate” value was 0.00325 ± 0.0038. AGGACCUACAGCUUGCAUAGGUAUUUAGUUA was tested, and the “pre-steady-state target cleavage rate” value was 0.00139 ± 0.0063. With “UCCUGGAUGUGCUUGCAUAGUAUUAUCAAA [g7:g20:cont:t1A]” the “pre-steady-state target cleavage rate” value was 0.000611 ± 0.0094. For AGGACCUACACGAUGCAUAGUAUUUAGAAA, the “pre-steady-state target cleavage rate” value was 0.00149 ± 0.0044. For UCCACCUACAGCUACCAUAGUAUUUAGUAA, the “pre-steady-state target cleavage rate” value was 0.000918 ± 0.0062. For UCGACCUACAGCUUGCAUACAAUUUACAAA, the “pre-steady-state target cleavage rate” value was 0.000807 ± 0.0086. For UGGACCUACAGCUUGGUUAGUAUUUACAAA, the “pre-steady-state target cleavage rate” value was 0.00136 ± 0.0029. In the case of AGGACCUACAGCUUGCUAAGUAUUUUCAAA, the “pre-steady-state target cleavage rate” value is reported as 0.000258 ± 0.018. AGGACCUACAGCUUGCAUAGUAAUUACAAA was tested, and the “pre-steady-state target cleavage rate” value was 0.00148 ± 0.006. In the case of UCGACCUACAGCUUGCAUUCUAUUUAGAAA, the “pre-steady-state target cleavage rate” value is reported as 0.00113 ± 0.0048. UCCUGGAUGUCGAACGAUAGUAUUUAGUAA was tested, and the “pre-steady-state target cleavage rate” value was 0.000133 ± 0.036. UCGACCUACAGCUUGGUAAGUAUUUAGUUA was tested, and the “pre-steady-state target cleavage rate” value was 0.000843 ± 0.0058. With UCCACCUACAGCUUGCAUAGUAAAAAGUUA the “pre-steady-state target cleavage rate” value was 0.00205 ± 0.0027. In the case of UCCACCUACAGCAACCAUAGUAUUUAGUAA, the “pre-steady-state target cleavage rate” value is reported as 0.000593 ± 0.0094. UCGACCUACAGGAAGCAUAGUAUUUAGAAA was tested, and the “pre-steady-state target cleavage rate” value was 0.00051 ± 0.0083. In the case of UGGACCUACAGCUUGCAUAAGUAUUUAGUUA, the “pre-steady-state target cleavage rate” value is reported as 0.000447 ± 0.012. AGGACCUACAGCUUCGAUAGUAUUUUCAAA was tested, and the “pre-steady-state target cleavage rate” value was 0.000215 ± 0.017. AGGACCUACAGCUUGCAAUAGUAUUUAGUUA was tested, and the “pre-steady-state target cleavage rate” value was 0.00226 ± 0.004. With UGGACCUACAGCUUGCAAUGUAUUUACAAA the “pre-steady-state target cleavage rate” value was 0.000666 ± 0.0072. UCGACCUACAGCUACGAUAGUAUUUAGUAA was tested, and the “pre-steady-state target cleavage rate” value was 0.000293 ± 0.01. In the case of UGGACCUACAGCUUCCAUAGUAUAUAGUUA, the “pre-steady-state target cleavage rate” value is reported as 0.000989 ± 0.0055. UCGACCUACAGCUUGGAUAGUAUUUUCAAA was tested, and the “pre-steady-state target cleavage rate” value was 0.00113 ± 0.0037. With UCGACCUAGAGCUUGCAUAGUAUUUUCAAA the “pre-steady-state target cleavage rate” value was 0.00154 ± 0.0036. In the case of UGGACCUACAGCUUGCAUUCUAUUUAGAAA, the “pre-steady-state target cleavage rate” value is reported as 0.00123 ± 0.0039. UCCUGGAUGUCGAUGUAUAGUAUUUAGUUA was tested, and the “pre-steady-state target cleavage rate” value was 0.00202 ± 0.0039. “UCCUGCUACAGCUUGCAUAGUAUUAUCAAA [g7:g25:cont:t1A]” was tested, and the “pre-steady-state target cleavage rate” value was 0.00146 ± 0.0037. In the case of AGGACCUACAGCUUGCAUAGUAUUAUCUAA, the “pre-steady-state target cleavage rate” value is reported as 0.00279 ± 0.0035. UCGACCUACAGCUUCCAUAGUAUUUACAAA was tested, and the “pre-steady-state target cleavage rate” value was 0.000697 ± 0.0077. In the case of UCCACCUACAGCUUGCAUAGUAUAUAGAUA, the “pre-steady-state target cleavage rate” value is reported as 0.00274 ± 0.0036. UCCACCUACAGCUUGGUAAGUAUUUUCAAA was tested, and the “pre-steady-state target cleavage rate” value was 0.000594 ± 0.0088. For UCCUGGAUGUCGAACGUAAGUAUUUGUUA, the “pre-steady-state target cleavage rate” value was 0.000245 ± 0.02. In the case of UCGACCUACAGCUUGCAUAGUUUUAGUUA, the “pre-steady-state target cleavage rate” value is reported as 0.00121 ± 0.0056. With UGGACCUACAGCUUGCAUAGUAUAAUCAAA the “pre-steady-state target cleavage rate” value was 0.000974 ± 0.0055. AGGACCUACAGCUUCGUUAGUAUUUAGAAA was tested, and the “pre-steady-state target cleavage rate” value was 0.00084 ± 0.0062. AGGACCUACAGCUUGCAUUAGUAUUUAGUUA was tested, and the “pre-steady-state target cleavage rate” value was 0.00148 ± 0.0055.
